In patent publication US20140024132A1, “METHODS AND SYSTEMS USING INTEGRATED METABOLOMICS AND PHARMACOKINETICS FOR MULTI-COMPONENT DRUG EVALUATION” (priority 2010, published 2014):

Experiment: Pearson correlation of absorbed, biotransformed plant metabolites and altered endogenous metabolites in urine
Type: in vivo, human
Details: FIG. 13

Question: With O=C(O)Cc1cccc(O)c1 [3-Hydroxyphenylacetic acid] as the molecule, how does the “effect of increase in its urine concentration on aminomalonic acid and 2-aminobutyric acid” value read?
Answer: elevated level
